According to PMC4092027:
A negative result means that nothing was seen under these conditions. Where a protein sequence is shown, tags need not be part of it.

Each sequence was assayed on T1, PfsR (Synechocystis sp. PCC 6803) (assay: EMSA). Conditions: 2 uM PfsR, 0.05 uM DNA; 4 mM Tris-HCl pH 7.5, 12 mM HEPES pH 7.5, 50 mM NaCl, 10 mM MgCl2, 12% glycerol; 25 C, 30 min; 6% native PAGE in 0.5x TBE; recombinant protein; residues 1-203; protein details: His6 (pQE-70); probe letters rebuilt from the primers and the genome.
T1 sequence (looked up): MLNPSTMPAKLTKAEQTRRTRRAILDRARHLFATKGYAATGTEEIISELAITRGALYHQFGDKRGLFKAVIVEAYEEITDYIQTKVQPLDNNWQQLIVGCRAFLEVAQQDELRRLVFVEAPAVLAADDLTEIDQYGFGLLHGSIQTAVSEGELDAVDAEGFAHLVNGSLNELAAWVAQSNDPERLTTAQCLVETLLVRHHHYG
“AGAGTCTTCTATGGAAAGGCGGGCAACGGGAGAAAATTGGGCGACTGTCATAGGAACCAGGGGCAAAAAAGCAGCAACAATAGTGGGAGGACTGATCCCGTTTAAAACTCAGACCTGATTCAGATCTAAACTGTTTAAAGCAAGTATTTAAACGGTACTTTAAATAAGAATTATTTGCAAGAGTTAAGGTTAACATATGATTTCAGCCGACCTCAATCCCCACTCTGTCCCTTGGTGGATTCTTGCTCCCCAGGGCACTGAAGCTCAGGCGATCGCCAAGGGGTTGGGAAAAACTGACCAGATATATTTGCAGGCGATGCCAGTGGGGGCCACAGCGGTGCAATCTTTTTTGGCAAATCTGGCCCAAACCTGGGCGAAAAGTGAAAAGCCCCAAGGTTTATTGGTGATGGGGGTGACTGGGAGTTTATCTGCTGATTACGGCATTGGCCAGGCCCTTTGGGTAGAGCAATGTCAATATTGGGAGAGTGGGAACCATGGTCA (double strand) [futC promoter 500 bp]”: no binding.
“ATTAAGCAATACCTTGGGAGGAGAGGGGAGAACGGTCAAAAAATTAAACACGGCAAATCAAACACAGGGGCAAAGCAAATTCTTCCGGGTCAGGAACACTAGGCCGTAACAGGGAAAATTAACTGCTGGGGGGATCAGTGGGTTTAAACGGGTCTCCCCCAATGCCCAATTCCTTTTTGCTTTCCTTAAGACTCTTCCAAAGTTGCTTAATGCGCTCGTAAGCTTCCATCGTCTCGATTTTACCCGCTGTCTCTAGGTTACAAATAACGCTCACCTTTTGGGCAAATTCTTGCAAATTTGCGTTGAAAACCAGCTTCTCCGGTTTGAAATCCCCATAATATTTGCTTTTGGGATACAGAAATGCGTCTTTTTCCGGATTATCAGTCATATCATCTCTTCGACGGACAAGAACAGTACCCATTGTAAAGGTATTGACCGTTTTCCGGGGTTGACCGAAGGCAAAGGTATGCTTAATTGAGACCAGATAATGCCAAGGGAACT (double strand) [futB promoter 500 bp]”: no binding.
“CACATCTGGACGACTGGACTGGACTGACCCCCTTTGGCAATGACTCACCATCTCCGCCCTACTCTCCTAAGGTAATCTGCACCAATTGGGCTTCACTACGGCGCATGGCCACTTCGGTGGTGCTACCAATGCGGAGGTGGAGTGGTCCCCCCAAACCAGCCTTGCGGAGCAATTGAATTGGTTTATCAGGAATTATTCCCATTGCTTCTAGGCGATTAACTAACCCCTGACCGTGGTTTCCTAGTAAAATTTTCTCCACAAAAGCCAACTGACCCACCGATAAATCCAATAACGTCATGGTTTTCCCAAAACTGCAAATAATTCTCAACTATTAAGTTAGCATTATCTGTTCAGAATAAATATCAAAAATCACTGGAATAATTGTGAGTATAATCACTTACCATTGATTAAATTCCATGCAACCTATGGAAAAGTCCTGCCCAAGACAGATGCTGGGAGCATTGCTGTAGATCGCCAAAAATCTCCGCAACTATTTGGGAC (double strand) [feoB promoter 500 bp]”: no binding.
“TGACATAATTCCGGTGGCTAAAAATCTGATTGGTGGTTAGAGGCCCCAACCTCCAGTTCCACTGACCATGGTTCACAAATCTTCCCTCTGTTACGCCAGGGGGATTTTATTTGTCCAGGTTACTATTAATAATAAATTTTGTTAGTGAGTAGAGATTTCCATCAGCTAGAGCTATGACAACCCAGGGTAAAGGGGAGTATTACCAAAGTTGAGACTCGGCTAAATTTTTCTTCCTAATCCTTGAAAGTCAAGCAGTATAAACTTTTAAGATCCTTTGCGCCCAATCAGAAAGATTTTTTCCTCAGGTTTTACGAGCAAAATAATAAGATTTATTTATGTCGTTTGGTTGAAGACCTAATTAAATAATCAGAAAATTACTCATTATATCTCCACTGCTGATAAAATTATTGAGAATTACTTTTATTAGAGGAGTGAAAAAGTTCAGCCACCATGGTCCAAAAGTTATCCCGTCGCCTATTTTTGTCCATTGGAACCGCCTTC (double strand) [futA1 promoter 500 bp]”: no binding.
